# In PubChem BioAssay AID1671190 (National Center for Advancing Translational Sciences (NCATS), 2021):
# The chains behind the UniProt entries cited, without tags or fusion partners. Where a name states a change or a piece, a line headed by the entry shows the natural chain unless it says otherwise.
# UniProt P18054: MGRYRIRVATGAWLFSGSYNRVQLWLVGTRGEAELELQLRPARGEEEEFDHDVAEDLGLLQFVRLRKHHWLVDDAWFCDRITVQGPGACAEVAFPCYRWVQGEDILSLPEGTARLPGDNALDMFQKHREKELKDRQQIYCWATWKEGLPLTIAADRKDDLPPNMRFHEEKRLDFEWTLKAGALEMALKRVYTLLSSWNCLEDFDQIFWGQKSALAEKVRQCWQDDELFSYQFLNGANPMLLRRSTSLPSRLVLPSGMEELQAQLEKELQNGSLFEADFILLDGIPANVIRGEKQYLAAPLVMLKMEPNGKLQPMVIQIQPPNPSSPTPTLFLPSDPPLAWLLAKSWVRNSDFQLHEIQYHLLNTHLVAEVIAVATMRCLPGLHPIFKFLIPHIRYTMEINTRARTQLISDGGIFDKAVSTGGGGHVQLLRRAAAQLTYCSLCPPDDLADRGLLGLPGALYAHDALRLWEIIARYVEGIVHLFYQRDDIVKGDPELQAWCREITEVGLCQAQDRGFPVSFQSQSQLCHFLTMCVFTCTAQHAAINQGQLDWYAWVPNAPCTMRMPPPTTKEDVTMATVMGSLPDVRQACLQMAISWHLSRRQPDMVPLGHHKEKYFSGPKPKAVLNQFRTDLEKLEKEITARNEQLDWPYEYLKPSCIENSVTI
# Several values for one entry are separate records, joined by “and”; a condition that tells them apart may be missing. Equal values may be shown once. The whole screen tested about 580,000 compounds, of which about 6,100 (1.1%) were called active. Inconclusive results, whose numbers are uncertain, are shown with a selection of clear calls. Calls come from the whole dose curve; as a rule, active = well fitted inhibition curve with a large enough effect; inconclusive = small, poorly fitted or top-dose-only effect, or another doubt; inactive = no such curve, though single readings can be large or run the other way. Potencies of inconclusive entries are doubtful fits and often do not repeat.
# Biological target: Polyunsaturated fatty acid lipoxygenase ALOX12 (Homo sapiens) (UniProt P18054)
# Experiment: Primary qHTS assay for inhibitors of human arachidonate 12S-lipoxygenase (ALOX12): Round 2
# Conditions: purified 12hLO, xylenol orange hydroperoxide absorbance; series mostly up to 108 µM
# Outline: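 Purified human 12hLO at 150 nM in 25 mM Hepes, 0.01% Triton X-100, pH 7.0, preincubated 15 min at room temperature with compound. Reaction started with 40 uM arachidonic acid, 30 min at room temperature. Hydroperoxide measured by Fe-xylenol orange, 573/405 nm absorbance ratio.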
# Potency is the fitted concentration of half-maximal effect.
row,Structure (SMILES),Potency
1,N#Cc1nc(/C=C/c2ccccc2Cl)oc1N1CCN(C(=O)c2ccco2)CC1,"inconclusive: 31.6 µM [inhibitor, partial curve, poor fit]"
2,Cc1ccccc1C(=O)NCCc1sc2nc(-c3ccc(F)cc3)nn2c1C,"inconclusive: 70.8 µM [inhibitor, partial curve, poor fit]"
3,CC(=O)c1c(C)[nH]c(C(=O)Nc2cc(S(=O)(=O)N3CCCCC3)ccc2C)c1C,inactive
4,N#CCCN(C(=O)CSc1nc(CN2CCOCC2)nc2ccccc12)c1ccccc1F,inactive
5,COc1ccccc1/C=N/NC(=O)c1cccc2ccccc12,inactive
6,Cc1cccc(C(=O)N2CCC3(CCCCO3)CC2)c1,inactive
7,COc1ccc(COC(=O)Nc2cc3c(C(F)(F)F)nn(C)c3s2)cc1,"inconclusive: 12.6 µM [inhibitor, partial curve, poor fit]"
8,COCCN1CCCNCC1,"inconclusive: 0.891 µM [inhibitor, full curve, poor fit]"
9,O=C(C1CCN(CC2CCCCC2)CC1)N1CCCC1,"inconclusive: 1 µM [inhibitor, full curve, poor fit]"
10,O=c1c2c(nc3cc(-c4ccc(F)cc4)[nH]n13)CCCC2,inactive
11,C=CCn1c(SCCOc2ccc(OC)cc2)nnc1C(C)NC(=O)Cc1ccc(OC)cc1 (centres undefined),inactive
12,COc1cc(N=Nc2ccc3ccccc3c2)ccc1O,inactive
13,O=C(CSc1ccccn1)N/N=C/c1ccccc1[N+](=O)[O-],inactive
14,CC1CN(CC(=O)NCc2ccc(Cl)cc2)CC(C)O1 (centres undefined),"inconclusive: 0.224 µM [inhibitor, full curve, poor fit]"
15,CCN(CC)c1ccc(/C=N/S(=O)(=O)c2cccs2)cc1,"inconclusive: 28.2 µM [inhibitor, partial curve, poor fit]"
16,CC(Oc1ccc(C(=O)/C=C/c2ccsc2)cc1)C(=O)O (centres undefined),"inconclusive: 22.4 µM [inhibitor, partial curve]"
17,CCN(CCO)Cc1cc(=O)oc2c(C)c(C)ccc12,"inconclusive: 35.5 µM [inhibitor, partial curve, poor fit] and inconclusive: 50.1 µM [inhibitor, partial curve, poor fit]"
18,COc1ccccc1CNCC(=O)Nc1cc(S(=O)(=O)N2CCCCC2)ccc1C,inactive
19,COc1ccc(N2CCN(C(=O)c3ccc4c(c3)CCN4S(=O)(=O)c3ccccc3)CC2)cc1,"inconclusive: 20 µM [inhibitor, partial curve, poor fit]"
20,Cc1ccsc1C(=O)N1CCCCCC1c1nnc(-c2ccccc2)o1 (centres undefined),inactive
21,CC(=O)CC(C)=Nc1ccccc1,"inconclusive: 100 µM [inhibitor, single point]"
22,CN(Cc1cnccn1)C(=O)CC1C(=O)NCCN1Cc1cccc(F)c1 (centres undefined),"inconclusive: 28.2 µM [inhibitor, partial curve, poor fit]"
23,CCOC(=O)c1cccc(NC(=O)c2ccc(N(C)C)cc2)c1,inactive
24,O=C(Nc1ccccc1)c1cccc(NC(=O)c2ccco2)c1,inactive
25,c1ccc(-c2oc3ncnc(NC[C@@H]4CCCO4)c3c2-c2ccccc2)cc1,"inconclusive: 15.3 µM [inhibitor, single point]"
26,O=C1NCCCCCCN(Cc2ccccc2)[C@H]2CCC[C@@H]12,inactive
27,COc1cc(NC(=O)CSc2cc(=O)n(C)c3ccccc23)cc(OC)c1OC,inactive

# Single values from the entries so far:
# Cc1cccc(C(=O)N2CCC3(CCCCO3)CC2)c1 – Potency: inactive
# O=C1NCCCCCCN(Cc2ccccc2)[C@H]2CCC[C@@H]12 – Potency: inactive
# CCN(CC)c1ccc(/C=N/S(=O)(=O)c2cccs2)cc1 – Potency: inconclusive: 28.2 µM [inhibitor, partial curve, poor fit]
# CCOC(=O)c1cccc(NC(=O)c2ccc(N(C)C)cc2)c1 – Potency: inactive

# The listing continues.

row,Structure (SMILES),Potency
1,CN(C)S(=O)(=O)c1ccc(/C(O)=C2/C(=O)C(=O)N(Cc3cccnc3)C2c2ccncc2)cc1 (centres undefined),"inconclusive: 10 µM [inhibitor, partial curve, poor fit]"
2,CCOC(=O)c1ccc(Nc2ncccc2[N+](=O)[O-])cc1,inactive
3,Brc1ccc(NC(c2ccccc2)c2ccncc2)cc1 (centres undefined),"inconclusive: 31.6 µM [inhibitor, partial curve, poor fit]"
4,S=C1NC2=C(CCc3ccccc32)C(c2ccccc2Cl)N1 (centres undefined),active: 8.91 µM
5,COc1ccc2nc(N(CCN(C)C)C(=O)c3ccc4ccccc4c3)sc2c1,"inconclusive: 100 µM [inhibitor, single point]"
6,COCCCNC(=O)C1CCN(Cc2cc3ccccc3n2Cc2cccc(Cl)c2)CC1,"inconclusive: 100 µM [inhibitor, partial curve, poor fit]"
7,Cc1ccc(S(=O)(=O)N2[C@@H](c3ccc(F)cc3)C(C(=O)O)=CC[C@H]2c2ccc(C(C)C)cc2)cc1,"inconclusive: 44.7 µM [inhibitor, partial curve, poor fit]"
8,N=C(N)SCc1ccc(Cl)cc1Cl,"inconclusive: 126 µM [inhibitor, single point] and inconclusive: 44.7 µM [inhibitor, partial curve, poor fit]"
9,CCN(Cc1cccc(F)c1)C(=O)Cn1nnn(-c2cccs2)c1=O,inactive
10,Cc1ccc(-c2cn3c(n2)sc2cc(C(=O)NC4CCCCCC4)ccc23)cc1,"inconclusive: 158 µM [inhibitor, partial curve, poor fit]"
11,O=C(Nc1cc(S(=O)(=O)Nc2ccc(Cl)cc2)ccc1N1CCCCC1)c1ccc(F)cc1,"inconclusive: 50.1 µM [inhibitor, partial curve, poor fit]"
12,COc1ccc(/C=C(\C#N)C(=O)NCc2ccccc2)cc1O,inactive
13,Nc1nc(N2CCN(c3ccccn3)CC2)nc2ccccc12,"inconclusive: 50.1 µM [inhibitor, partial curve, poor fit]"
14,Cn1cc(-c2cc(=O)c3ccnc(-c4cccc5[nH]ccc45)c3o2)cn1,"inconclusive: 14.1 µM [inhibitor, full curve, poor fit]"
15,Clc1cccc(Cl)c1-c1noc(-c2ccno2)n1,"inconclusive: 126 µM [inhibitor, single point]"
16,CCCN(C)C(=O)c1cn2ccnc(-c3ccc(C)cc3)c2n1,inactive
17,CCOC(=O)c1nc(NCc2ccccc2)sc1C,"inconclusive: 44.7 µM [inhibitor, partial curve, poor fit]"
18,Cc1ccc(S(=O)(=O)Nc2ccc(Br)cc2/C=N/n2cnnc2)cc1,active: 44.7 µM
19,C=CCOc1ccc(C2/C(=C(\O)c3c(C)[nH]c(C(=O)OC)c3C)C(=O)C(=O)N2CCN(C)C)cc1 (centres undefined),"inconclusive: 25.1 µM [inhibitor, single point]"
20,CCC(c1cccnc1)N(C)C(=O)C1CCN(C(=O)C2CCCC2)CC1 (centres undefined),inactive
21,O=c1[nH]c(-c2ccccn2)cc2ccccc12,inactive
22,COc1ccc(C(O)c2nc(-c3ccccc3OC)cs2)cc1 (centres undefined),"inconclusive: 39.8 µM [inhibitor, partial curve, poor fit]"
23,COc1cc(CNC(=O)c2cc(-c3ccc(F)cc3)cc3ncn(C)c23)ccn1,"inconclusive: 89.1 µM [inhibitor, partial curve, poor fit]"
24,COc1cc(OC)c(CC2C(=O)Nc3cc(Cl)ccc32)c(OC)c1 (centres undefined),active: 17.8 µM
25,CC(NC(=S)Nc1ccccc1Cl)C(c1cccs1)N1CCCC1 (centres undefined),"inconclusive: 50.1 µM [inhibitor, partial curve, poor fit]"
26,CCC12CN3CC(CC)(CN(C1)C3c1c[nH]c3ccccc13)C2=O (centres undefined),inactive
27,CN1OC[C@@H]2CN(Cc3cc(Cl)cc(Cl)c3)[C@H](c3cccc(-c4ccc(C#N)cc4)c3)C[C@@H]21,inactive

# Some of the entries above in a different format:
row | Structure (SMILES) | Potency
4 | S=C1NC2=C(CCc3ccccc32)C(c2ccccc2Cl)N1 (centres undefined) | active: 8.91 µM
5 | COc1ccc2nc(N(CCN(C)C)C(=O)c3ccc4ccccc4c3)sc2c1 | inconclusive: 100 µM [inhibitor, single point]
